23 molecules from article PMC12040169 (PLOS Biology, 2025) can be followed below.

This is one part of the list.

The experiment relates to T1, CTL2-GFP (C. trachomatis L2/434/Bu, GFP-expressing).
T1 construct: L2/434/Bu, GFP-expressing
Set-up: species or system HeLa; Intracellular C. trachomatis growth in HeLa cells, bulk GFP fluorescence relative to DMSO. To be noted: bulk GFP, single well; 28.5 h, 10 µM; inhibitor.
For the molecule `COc1ccc(Br)cc1S(=O)(=O)Nc1cccc(C(=O)Nc2ccc(F)cc2)c1` [CBK038981], the “% of control remaining” value amounted to 102.151%.

With `Cc1csc2c(N3CCSCC3)ncnc12` [CBK009169], the “% of control remaining” value was 120.363%. The result for `COc1ccc(C)cc1N(C(=O)c1ccccn1)c1nc2ccccc2s1` [CBK297944] reads 104.959%; that for `COc1ccc(-c2cncc(N3CCCC3CO)n2)cc1` (centres unmarked) [CBK037223], 126.481%; that for `CC(C)(C)OC(=O)N1CCC(COc2ccc(-c3ccc(S(C)(=O)=O)cc3)nc2)CC1` [CBK167839], 120.7%.

Regarding `CCS(=O)(=O)Nc1cc([N+](=O)[O-])ccc1OC` [CBK111343], the “% of control remaining” value came to 58.486%. As to `CCCS(=O)(=O)Nc1nccnc1-c1ccc(Oc2ccccc2)cc1` [CBK050908], the “% of control remaining” value is 110.022%. In the case of `COc1ccc(CNc2nccs2)c(O)c1` [CBK265690], the “% of control remaining” value is 135.705%.

`Cc1ccc(-c2c(N3C(=O)c4cccnc4C3=O)n[nH]c2C)cc1` [CBK288199]: the “% of control remaining” value amounted to 121.434%.

For the molecule `Cc1cc2[nH]c(=O)oc2cc1S(=O)(=O)NCCN1CCCCC1CO` (centres unmarked) [CBK307307], the “% of control remaining” value is 141.002%. In the case of `CCn1cc(C2CN(S(=O)(=O)c3ccc(F)c(C)c3)CCO2)cn1` (centres unmarked) [CBK305419], the “% of control remaining” value is reported as 103.029%. The result for `O=C(C1CCCC1)N1CCCC1c1nc2ccccc2[nH]1` (centres unmarked) [CBK282378] reads 159.372%. The result for `OCc1nc(-c2cccnc2)co1` [CBK018811] reads 101.266%. Turning to `COc1ccc2cc(Br)ccc2c1CC(=O)Nc1ccccc1[N+](=O)[O-]` [CBK268823], the “% of control remaining” value is listed as 182.367%. The result for `O=S(=O)(Nc1ccccc1)c1ccccc1I` [CBK057566] reads 88.8689%. With `Cc1cc(=O)oc2cc(SCc3ccc(Cl)s3)ccc12` [CBK002898] the figure was 98.6348%; with `CC(C)(C)C(=O)CSc1nnc(-c2ccccc2)n1Cc1ccccc1` [CBK264960], 120.162%. With `CCC(NC(=O)c1ccc(C(C)(C)C)[nH]c1=O)c1ccc(OC)cc1` (centres unmarked) [CBK282940] the figure was 113.054%. Take `CC1(C)SC(NCC2CCCCC2)=NC1=O` [CBK067808]: the “% of control remaining” value worked out at 135.486%. The result for `CCN(CC)C(=O)CN1CCC(c2ccccc2F)CC1` [CBK283549] reads 105.953%. With `O=C(Cn1nnc2ccccc21)N/N=C\c1cccc(Cl)c1Cl` [CBK262931] the figure was 104.212%; with `COCc1cccc(-c2nccnc2Oc2cccc(OC)c2)c1` [CBK106958], 93.7504%; with `CC(NC(=O)c1ccc(-n2ccnc2)c(-n2cccc2)c1)c1ccco1` (centres unmarked) [CBK284808], 109.704%.
